This is an account of results in paper doi:10.1101/2025.06.01.657267, “IFITM1 and IFITM3 cooperate to restrict virus entry in endolysosomes” (bioRxiv, 2025).

By UniProt entry, the sequences of proteins in these tests, tags left out.
UniProt Q01628: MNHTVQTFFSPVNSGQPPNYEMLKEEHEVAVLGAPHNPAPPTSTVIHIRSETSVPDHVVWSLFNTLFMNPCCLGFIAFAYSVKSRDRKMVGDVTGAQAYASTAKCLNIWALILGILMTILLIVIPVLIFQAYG
UniProt P13164: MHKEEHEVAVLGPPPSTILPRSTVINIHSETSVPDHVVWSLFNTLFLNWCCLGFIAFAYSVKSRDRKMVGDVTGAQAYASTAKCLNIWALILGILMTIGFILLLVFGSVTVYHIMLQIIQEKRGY

Results are given in words; binding and its absence hold for the method and conditions named. Binding seen in cells or lysates may run through a third protein. A yes stands for co-enrichment or nearness to the bait. Other partners may have been found.

The target in this assay is FLAG-IFITM3 WT (human) (UniProt Q01628). Put plainly: affinity purification with mass spectrometry; anti-FLAG (M2) immunoprecipitation from whole cell lysates (1% Triton X-100, 150 mM NaCl) of HEK293T stably expressing FLAG-IFITM3 WT, G95L or Empty Vector; TMT labelling, duplicate MS runs.

Consider “endogenous IFITM1 (from UniProt P13164 1-125)”, for which the binding entry is given as “binds”.
